# Source: PubChem BioAssay AID248 (DTP/NCI, 2004)
# The list does not hold the whole screen: it gathers tests that were run many times, whatever their T/C, doses with no T/C, and many T/C values between a quarter and a half above the control. Further doses and runs are listed elsewhere. T/C: endpoint of the treated group in % of that of the vehicle group. Some entries give survivors of the animals treated and no T/C: the source files T/C as zero there, which appears to mark a toxic dose or a test without result, not a measured value. Some doses without a T/C left all or most animals alive at the check, yet need not have been tolerated: survival well below the control is almost never listed, so the zero probably covers shortened survival too. Survivors were counted at the toxicity check, usually on the fifth day, unless a day is given; later deaths do not show. Schedules are NCI's codes, taken here to give the interval after Q, in days (D) or hours (H), and the number of doses after X. Some molecules as drawn cover several salts, stereoisomers or complexes of the source; a dose is that of the sample tested. For survival time, this PubChem deposit counts one and a half times the control or more as active, and values a quarter to a half above the control carry no call in these data; other NCI protocols may use other cut-offs. Some entries hold several experiments; their values stand side by side, smallest first.
# Test system: L1210 leukemia ip in BDF1 mice, survival T/C
# Assay: NCI In Vivo Anticancer Drug Screen. Data for tumor model L1210 Leukemia (intraperitoneal) in B6D2F1 (BDF1) mice
# Settings: T/C endpoint: mean survival time, higher T/C = longer survival
# [1] = dose: 200.0 mg/kg/injection, schedule: Q01DX001 (ip), vehicle: saline
# [2] = dose: 400.0 mg/kg/injection, schedule: Q01DX001 (ip), vehicle: saline
# [3] = dose: 100.0 mg/kg/injection, schedule: Q01DX009 (ip), vehicle: saline
# [4] = dose: 400.0 mg/kg/injection, schedule: Q01DX009 (ip), vehicle: saline
# [5] = dose: 200.0 mg/kg/injection, schedule: Q01DX009 (ip), vehicle: saline
# [6] = dose: 400.0 mg/kg/injection, schedule: Q04DX002 (ip), vehicle: Klucel (hydroxypropylcellulose) (HPC)
structure (smiles),measurement,setting,value
CC1(C)N=C(N)N=C(N)N1c1ccc(Cl)cc1Cl,survivor count,"dose: 100.0 mg/kg/injection, schedule: Q01DX009 (ip), vehicle: Klucel (hydroxypropylcellulose) (HPC)",1 of 6
same,survivor count,[1],0 of 3
same,survivor count,"dose: 200.0 mg/kg/injection, schedule: Q04DX003 (ip), vehicle: Klucel (hydroxypropylcellulose) (HPC)",2 of 6
same,survivor count,[2],0 of 3
same,survivor count,"dose: 400.0 mg/kg/injection, schedule: Q04DX003 (ip), vehicle: Klucel (hydroxypropylcellulose) (HPC)",0 of 6
C=CCN(C(=O)OCC)P(=O)(OCC)OCC,survivor count,[3],6 of 6
same,survivor count,[4],0 of 6
same,survivor count,"dose: 400.0 mg/kg/injection, schedule: Q04DX003 (ip), vehicle: saline",0 of 6
CC1(C)N=C(N)N=C(N)N1c1ccc(OCCNC(=O)Nc2ccc(S(=O)(=O)F)cc2)c(Cl)c1,survivor count,[5],2 of 6
same,survivor count,[4],0 of 6
CCOC1CCC2C(CCC(/C=C/c3ccc(O)c4ncccc34)N2C)C1 (configuration not stated),T/C,"dose: 60.0 mg/kg/injection, schedule: Q01DX015 (ip), vehicle: saline",127 % of control
same,T/C,"dose: 88.8 mg/kg/injection, schedule: Q01DX001 (ip), vehicle: saline",128 % of control
same,T/C,"dose: 200.0 mg/kg/injection, schedule: Q01DX001 (ip), vehicle: saline, evaluated on day 30",116 % of control
same,survivor count,[1],2 of 4
same,T/C,"dose: 200.0 mg/kg/injection, schedule: Q01DX001 (ip), vehicle: saline, run until all animals had died",129 and 134 % of control
same,survivor count,"dose: 300.0 mg/kg/injection, schedule: Q01DX001 (ip), vehicle: saline",2 of 4
same,survivor count,[2],0 of 4
Nc1nc(N)c(C=Nc2ccc(Br)cc2)c(Nc2ccc(Br)cc2)n1,survivor count,"dose: 100.0 mg/kg/injection, schedule: Q01DX001 (ip), vehicle: alcohol",4 of 4
same,survivor count,"dose: 200.0 mg/kg/injection, schedule: Q01DX001 (ip), vehicle: alcohol",4 of 4
same,survivor count,"dose: 400.0 mg/kg/injection, schedule: Q01DX001 (ip), vehicle: alcohol",4 of 4
CSc1ncnc2c1nc[n]2[Sn]([c]1ccccc1)([c]1ccccc1)[c]1ccccc1.CSc1ncnc2nc[nH]c12,survivor count,"dose: 40.0 mg/kg/injection, schedule: Q01DX001 (ip), vehicle: other",3 of 6
same,survivor count,"dose: 80.0 mg/kg/injection, schedule: Q01DX001 (ip), vehicle: other",3 of 6
same,survivor count,"dose: 100.0 mg/kg/injection, schedule: Q01DX001 (ip), vehicle: other",1 of 6
same,survivor count,"dose: 200.0 mg/kg/injection, schedule: Q01DX001 (ip), vehicle: other",0 of 6
same,survivor count,"dose: 400.0 mg/kg/injection, schedule: Q01DX001 (ip), vehicle: other",0 of 6
C[CH2][Pb]([CH2]C)([CH2]C)[O]C(=O)COc1ccccc1,survivor count,"dose: 12.0 mg/kg/injection, schedule: Q01DX009 (ip), vehicle: Klucel (hydroxypropylcellulose) (HPC)",2 of 6
same,survivor count,"dose: 50.0 mg/kg/injection, schedule: Q04DX002 (ip), vehicle: Klucel (hydroxypropylcellulose) (HPC)",0 of 3
same,survivor count,"dose: 100.0 mg/kg/injection, schedule: Q04DX002 (ip), vehicle: Klucel (hydroxypropylcellulose) (HPC)",1 of 3
same,survivor count,"dose: 200.0 mg/kg/injection, schedule: Q04DX002 (ip), vehicle: Klucel (hydroxypropylcellulose) (HPC)",0 of 3
same,survivor count,[6],0 of 3
NCC1C2CC3CC(C2)CC1C3 (configuration not stated),survivor count,"dose: 100.0 mg/kg/injection, schedule: Q01DX001 (ip), vehicle: saline",3 of 6
same,survivor count,[1],0 of 6
same,survivor count,[2],0 of 6
same,survivor count,[6],1 of 3
CN(C)c1ccc(-c2cccc[n+]2C)cc1,survivor count,[3],0 of 6
same,survivor count,[5],0 of 6
same,survivor count,[4],0 of 6
